Among the data in paper doi:10.1101/2025.04.08.647777 (bioRxiv, 2025) are binding values, retold here.

Chains of the proteins cited; added tags and fusions are not shown. Lines headed by an entry give the natural chain unless they say otherwise; changes in a name come on top.
UniProt O14576, whole entry: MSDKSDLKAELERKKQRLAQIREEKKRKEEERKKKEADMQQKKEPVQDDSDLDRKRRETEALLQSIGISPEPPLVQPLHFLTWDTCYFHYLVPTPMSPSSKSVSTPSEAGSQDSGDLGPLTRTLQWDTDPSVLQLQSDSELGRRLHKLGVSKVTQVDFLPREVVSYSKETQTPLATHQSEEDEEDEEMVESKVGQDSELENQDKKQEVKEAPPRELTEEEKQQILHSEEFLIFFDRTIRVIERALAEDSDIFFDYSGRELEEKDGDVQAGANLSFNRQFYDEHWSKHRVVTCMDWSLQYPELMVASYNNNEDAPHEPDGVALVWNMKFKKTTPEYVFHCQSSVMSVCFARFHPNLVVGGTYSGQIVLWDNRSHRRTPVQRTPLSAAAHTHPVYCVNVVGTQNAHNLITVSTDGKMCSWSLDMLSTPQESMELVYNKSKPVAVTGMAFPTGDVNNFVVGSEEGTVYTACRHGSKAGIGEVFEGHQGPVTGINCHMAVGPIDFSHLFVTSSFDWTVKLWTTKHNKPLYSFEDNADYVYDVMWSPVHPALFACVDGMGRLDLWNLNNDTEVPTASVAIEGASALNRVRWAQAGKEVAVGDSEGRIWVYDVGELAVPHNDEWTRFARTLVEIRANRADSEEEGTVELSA
UniProt Q13098, whole entry: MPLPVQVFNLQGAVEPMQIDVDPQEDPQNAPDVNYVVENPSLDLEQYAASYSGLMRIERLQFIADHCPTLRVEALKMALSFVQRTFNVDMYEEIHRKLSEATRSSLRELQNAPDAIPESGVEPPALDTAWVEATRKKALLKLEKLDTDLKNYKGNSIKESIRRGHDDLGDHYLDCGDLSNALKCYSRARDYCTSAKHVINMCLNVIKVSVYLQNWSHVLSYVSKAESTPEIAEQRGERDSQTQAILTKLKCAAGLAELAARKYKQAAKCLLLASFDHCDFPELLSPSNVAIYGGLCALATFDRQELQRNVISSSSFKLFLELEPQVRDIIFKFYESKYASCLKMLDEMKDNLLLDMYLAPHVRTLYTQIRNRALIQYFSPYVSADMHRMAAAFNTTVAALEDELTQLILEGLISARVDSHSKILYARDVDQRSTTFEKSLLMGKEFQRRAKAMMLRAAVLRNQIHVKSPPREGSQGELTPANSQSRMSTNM
UniProt Q7L5N1, whole entry: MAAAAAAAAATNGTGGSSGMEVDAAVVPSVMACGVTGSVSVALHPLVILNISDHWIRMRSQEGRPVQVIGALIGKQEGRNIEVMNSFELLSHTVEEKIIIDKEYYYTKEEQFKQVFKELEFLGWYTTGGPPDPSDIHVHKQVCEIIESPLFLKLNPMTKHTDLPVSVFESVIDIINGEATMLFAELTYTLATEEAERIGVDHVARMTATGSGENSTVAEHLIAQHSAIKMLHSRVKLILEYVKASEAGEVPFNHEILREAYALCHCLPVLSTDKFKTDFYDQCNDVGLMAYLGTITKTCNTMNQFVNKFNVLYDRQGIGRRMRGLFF
UniProt Q92905, whole entry: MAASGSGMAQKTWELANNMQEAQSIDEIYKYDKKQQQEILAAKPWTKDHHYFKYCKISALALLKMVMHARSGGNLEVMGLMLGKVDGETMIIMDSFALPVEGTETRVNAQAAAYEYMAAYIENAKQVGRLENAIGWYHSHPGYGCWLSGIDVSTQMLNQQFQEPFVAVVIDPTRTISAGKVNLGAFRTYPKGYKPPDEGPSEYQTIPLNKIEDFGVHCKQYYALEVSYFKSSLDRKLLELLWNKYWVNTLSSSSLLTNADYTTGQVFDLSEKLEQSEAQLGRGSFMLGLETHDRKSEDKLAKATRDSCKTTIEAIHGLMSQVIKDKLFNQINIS
UniProt O43237, whole entry: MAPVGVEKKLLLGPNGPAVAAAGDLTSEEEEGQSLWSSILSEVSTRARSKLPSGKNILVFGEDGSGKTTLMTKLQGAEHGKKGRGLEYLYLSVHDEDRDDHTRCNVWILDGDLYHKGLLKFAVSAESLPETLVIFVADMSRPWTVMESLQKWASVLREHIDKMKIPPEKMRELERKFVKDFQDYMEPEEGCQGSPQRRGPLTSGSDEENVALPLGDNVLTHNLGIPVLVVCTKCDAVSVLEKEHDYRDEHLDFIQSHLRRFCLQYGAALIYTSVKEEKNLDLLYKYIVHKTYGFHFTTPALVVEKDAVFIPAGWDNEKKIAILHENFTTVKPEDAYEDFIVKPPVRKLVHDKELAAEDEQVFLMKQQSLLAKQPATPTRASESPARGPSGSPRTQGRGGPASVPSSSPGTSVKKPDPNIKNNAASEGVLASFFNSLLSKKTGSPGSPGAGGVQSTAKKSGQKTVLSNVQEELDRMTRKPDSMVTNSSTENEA
UniProt Q99627, whole entry: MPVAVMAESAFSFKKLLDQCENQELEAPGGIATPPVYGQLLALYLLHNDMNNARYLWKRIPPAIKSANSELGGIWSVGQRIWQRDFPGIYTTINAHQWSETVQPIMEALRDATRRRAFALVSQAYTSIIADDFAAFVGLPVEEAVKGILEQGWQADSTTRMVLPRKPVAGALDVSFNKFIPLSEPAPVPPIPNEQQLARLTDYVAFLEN
UniProt P61201, whole entry: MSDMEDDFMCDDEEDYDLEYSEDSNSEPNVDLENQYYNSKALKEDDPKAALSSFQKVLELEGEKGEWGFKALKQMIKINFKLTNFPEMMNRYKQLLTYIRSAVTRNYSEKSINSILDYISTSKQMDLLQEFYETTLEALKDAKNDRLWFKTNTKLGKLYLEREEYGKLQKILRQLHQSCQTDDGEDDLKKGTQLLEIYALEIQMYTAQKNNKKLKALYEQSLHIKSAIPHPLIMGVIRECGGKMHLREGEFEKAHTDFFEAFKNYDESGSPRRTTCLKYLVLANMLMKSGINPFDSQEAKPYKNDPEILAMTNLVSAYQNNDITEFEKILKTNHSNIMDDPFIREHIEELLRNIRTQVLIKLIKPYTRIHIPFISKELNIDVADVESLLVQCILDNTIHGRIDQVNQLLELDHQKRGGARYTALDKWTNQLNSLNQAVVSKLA
UniProt Q9UNS2, whole entry: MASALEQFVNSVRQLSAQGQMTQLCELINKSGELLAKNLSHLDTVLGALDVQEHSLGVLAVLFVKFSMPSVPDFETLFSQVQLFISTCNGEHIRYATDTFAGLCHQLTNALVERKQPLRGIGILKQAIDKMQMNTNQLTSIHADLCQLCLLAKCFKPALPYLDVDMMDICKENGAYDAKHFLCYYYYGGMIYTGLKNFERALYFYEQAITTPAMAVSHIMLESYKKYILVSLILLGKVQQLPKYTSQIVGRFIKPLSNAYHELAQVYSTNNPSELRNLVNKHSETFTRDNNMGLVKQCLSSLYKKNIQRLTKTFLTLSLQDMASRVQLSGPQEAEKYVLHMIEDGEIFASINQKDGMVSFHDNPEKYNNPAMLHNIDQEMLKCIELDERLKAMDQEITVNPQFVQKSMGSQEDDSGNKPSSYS
UniProt O14744, whole entry: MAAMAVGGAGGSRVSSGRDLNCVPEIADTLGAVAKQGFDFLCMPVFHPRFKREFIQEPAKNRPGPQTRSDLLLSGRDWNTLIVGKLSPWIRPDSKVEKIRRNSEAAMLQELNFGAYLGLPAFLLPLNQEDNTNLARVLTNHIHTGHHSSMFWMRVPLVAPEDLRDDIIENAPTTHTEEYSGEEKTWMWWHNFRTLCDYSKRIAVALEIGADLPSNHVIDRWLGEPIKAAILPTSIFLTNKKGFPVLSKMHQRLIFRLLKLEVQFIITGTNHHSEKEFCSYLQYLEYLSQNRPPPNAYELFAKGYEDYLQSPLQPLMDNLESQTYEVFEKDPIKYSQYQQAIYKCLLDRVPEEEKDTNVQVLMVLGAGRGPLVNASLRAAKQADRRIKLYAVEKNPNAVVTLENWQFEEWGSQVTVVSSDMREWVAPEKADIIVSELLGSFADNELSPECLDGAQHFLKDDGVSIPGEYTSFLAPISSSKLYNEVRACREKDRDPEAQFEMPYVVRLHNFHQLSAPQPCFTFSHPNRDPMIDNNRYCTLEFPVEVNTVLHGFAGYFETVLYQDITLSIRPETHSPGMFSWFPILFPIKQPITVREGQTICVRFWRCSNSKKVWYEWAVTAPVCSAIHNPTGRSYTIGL
UniProt Q8TD16, whole entry: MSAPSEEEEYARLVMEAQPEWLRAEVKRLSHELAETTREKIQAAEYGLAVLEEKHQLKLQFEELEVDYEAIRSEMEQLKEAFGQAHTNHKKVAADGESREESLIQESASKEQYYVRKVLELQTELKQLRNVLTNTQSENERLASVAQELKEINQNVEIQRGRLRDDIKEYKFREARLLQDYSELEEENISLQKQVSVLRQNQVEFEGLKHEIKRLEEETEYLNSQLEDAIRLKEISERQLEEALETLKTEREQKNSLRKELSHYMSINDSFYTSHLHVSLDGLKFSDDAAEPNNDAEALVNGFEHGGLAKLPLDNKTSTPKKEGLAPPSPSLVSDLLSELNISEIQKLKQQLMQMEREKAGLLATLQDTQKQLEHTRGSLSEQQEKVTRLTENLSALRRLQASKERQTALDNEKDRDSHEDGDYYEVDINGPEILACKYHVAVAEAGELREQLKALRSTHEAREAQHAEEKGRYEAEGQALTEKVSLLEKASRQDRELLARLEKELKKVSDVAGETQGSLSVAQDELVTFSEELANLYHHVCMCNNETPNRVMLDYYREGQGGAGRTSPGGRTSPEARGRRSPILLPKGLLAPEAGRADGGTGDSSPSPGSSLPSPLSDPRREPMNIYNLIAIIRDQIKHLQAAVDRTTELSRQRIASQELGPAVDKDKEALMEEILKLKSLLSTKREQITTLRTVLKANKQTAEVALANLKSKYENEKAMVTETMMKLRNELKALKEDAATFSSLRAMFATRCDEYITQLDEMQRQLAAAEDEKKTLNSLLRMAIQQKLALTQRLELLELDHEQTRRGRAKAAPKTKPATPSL

The target in test [1] is SFB-DIC1 WT (UniProt O14576). Kind of test: pull-down.
For test [2], the target named is dynein heavy chain (DHC), endogenous (human (endogenous in HEK293T)) (UniProt Q14204). Kind of test: co-IP.
For test [3], the target named is T1, SFB-Lis1 WT (UniProt P43034).
T1 sequence: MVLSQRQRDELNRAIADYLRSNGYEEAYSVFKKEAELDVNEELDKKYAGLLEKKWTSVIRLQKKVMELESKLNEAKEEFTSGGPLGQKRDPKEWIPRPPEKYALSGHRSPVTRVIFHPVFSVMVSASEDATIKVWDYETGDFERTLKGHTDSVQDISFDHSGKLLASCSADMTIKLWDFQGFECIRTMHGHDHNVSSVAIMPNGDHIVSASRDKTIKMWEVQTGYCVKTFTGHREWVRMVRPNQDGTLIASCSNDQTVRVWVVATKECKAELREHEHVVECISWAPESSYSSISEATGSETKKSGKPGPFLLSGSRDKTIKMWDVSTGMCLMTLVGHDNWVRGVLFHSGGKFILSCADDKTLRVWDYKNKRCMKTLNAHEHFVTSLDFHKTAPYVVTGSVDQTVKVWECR
Briefly: pull-down.

Test [4] deals with SFB-CSN1 (UniProt Q13098). Kind of test: pull-down.
Test [5] addresses T2, SFB-Lis1 D317H (UniProt P43034).
T2 sequence: T1 sequence with D317H
Kind of test: pull-down.

Test [6] addresses T3, SFB-Lis1 S169P (UniProt P43034).
T3 sequence: T1 sequence with S169P
Kind of test: pull-down.

Test [7] has as its target GST-CSN6 (UniProt Q7L5N1). Briefly: pull-down.
In test [8] the target is GST-CSN5 (UniProt Q92905). Briefly: pull-down.
In test [9] the target is SFB-LIC2 (UniProt O43237). Briefly: pull-down.
Test [10] addresses GST-CSN4 (UniProt Q9BT78). Kind of test: pull-down.
Test [11] addresses T4, GST-CSN7A (UniProt Q9UBW8).
T4 sequence: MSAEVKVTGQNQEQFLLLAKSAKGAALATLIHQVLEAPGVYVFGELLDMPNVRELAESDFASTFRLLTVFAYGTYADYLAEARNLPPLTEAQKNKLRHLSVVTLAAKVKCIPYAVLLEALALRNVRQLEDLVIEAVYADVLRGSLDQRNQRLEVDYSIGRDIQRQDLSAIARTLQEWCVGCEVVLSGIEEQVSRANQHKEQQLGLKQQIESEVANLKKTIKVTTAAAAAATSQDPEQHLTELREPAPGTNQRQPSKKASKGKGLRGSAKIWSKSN
Briefly: pull-down.

Test [12] addresses GST-CSN8 (UniProt Q99627). Kind of test: pull-down.
Test [13] addresses GST-CSN2 (UniProt P61201). Kind of test: pull-down.
For test [14], the target named is CSN1, bacterially purified recombinant (GST-CSN subunit) (UniProt Q13098). Briefly: pull-down.
The target of test [15] is GST-CSN3 (UniProt Q9UNS2). Kind of test: pull-down.
The target of test [16] is PRMT5 (endogenous) (human (endogenous in HEK293T and IMR32)) (UniProt O14744). Kind of test: co-IP.
Test [17] shares this target. Kind of test: co-IP. This is another data set of the same source.

Changes are numbered by the printed parent chain. Where two headings read alike, the source gives them in different places. Results are given in words; binding and its absence hold for the method and conditions named. For some of these results: Binding seen in cells or lysates may run through a third protein. Some entries that bind do so weakly or less than the wild type. For some of these results: Where a sequence is shown, tags or fusion partners need not be part of it.

For “BicD2 (endogenous) (from UniProt Q8TD16 1-824)”, the binding entry in [1] was “binds”.

Take “CSN1 (endogenous) (from UniProt Q13098 1-491)”: the binding entry in test [1] and in test [2] was “binds” in each case.

For DIC1-HA (from UniProt O14576 1-645), the binding result in [3], in test [4], in test [5] and in test [6] was “binds” throughout.

For the molecule “LIC2 (endogenous) (from UniProt O43237 1-492)”, the binding entry in test [1] is recorded as “binds”. Turning to MBP-DIC1 (from UniProt O14576 1-645), the binding result in test [7] and in test [8] was “no binding” each time. Consider Myc-CSN1 (from UniProt Q13098 1-491), for which the binding result in test [1] is on record as “binds”. Consider Myc-CSN4 (from UniProt Q9BT78 1-406), for which the binding entry in [3] is recorded as “binds”.

Turning to Myc-DIC1 (from UniProt O14576 1-645), the binding result in test [9] is reported as “binds”.

For Myc-LIC2 (from UniProt O43237 1-492), the binding entry in [1] is listed as “binds”. As for “PRMT5 (endogenous) (from UniProt O14744 1-637) (enzyme)”, the binding entry in test [3] and in test [6] was “binds” each time. Take V5-BicD2 (from UniProt Q8TD16 1-824): the binding entry in test [1] is “binds”.

B1: Lis1, bacterially purified recombinant (protein, UniProt P43034 1-410)
chain: T1 sequence
As for B1, the binding entry in test [10], in test [11], in test [12], in [13], in test [14] and in test [15] was “binds” in each case.

B2: Lis1 (endogenous) (protein, UniProt P43034 1-410)
chain: T1 sequence
As to B2, the binding entry in test [16] and in test [17] was “binds” throughout.
